The list shows a part of the results.

Binding signal data for 54 sequences are collected here from PMC7819943, “Rice protein-binding microarrays: a tool to detect cis-acting elements near promoter regions in rice”.

This assay deals with T1, OsSMF1 (Oryza sativa, UniProt Q6ZLB0 1-436).
T1 sequence: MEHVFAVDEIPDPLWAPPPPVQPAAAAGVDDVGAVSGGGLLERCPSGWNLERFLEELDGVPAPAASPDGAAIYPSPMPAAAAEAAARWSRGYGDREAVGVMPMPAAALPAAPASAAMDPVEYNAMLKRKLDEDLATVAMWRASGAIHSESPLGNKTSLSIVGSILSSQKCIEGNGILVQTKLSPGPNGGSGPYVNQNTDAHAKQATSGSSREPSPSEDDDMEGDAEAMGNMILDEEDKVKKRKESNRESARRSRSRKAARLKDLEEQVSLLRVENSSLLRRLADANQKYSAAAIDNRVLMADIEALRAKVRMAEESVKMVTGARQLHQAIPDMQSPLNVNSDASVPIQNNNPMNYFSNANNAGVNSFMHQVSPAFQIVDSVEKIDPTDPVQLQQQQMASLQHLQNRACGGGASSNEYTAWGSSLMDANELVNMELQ
As to the kind of experiment: protein-binding microarray (RPBM); PBS, 2% BSA, 51.3 ng/ul salmon testes DNA, 50 uM zinc acetate, 200 nM TF, 25 C, 1 h; high values mean tight binding. To be noted: protein: recombinant; tags: N-terminal polyhistidine and DsRed monomer fusion (pET32a); chain copies: 2; label: CyDye5-dUTP incorporated in the synthesized complementary strand; 3' TTTTT single-stranded linker to array surface; dsDNA, one strand shown. The procedure, abridged: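 Using Ni–NTA, transcription factors fused N-terminally to polyhistidine and DsRed were purified after expression in E. coli BL21-CodonPlus. These were incubated at 200 nM with a blocked, double-stranded custom Agilent array for 1 h at 25 °C in a buffer containing 50 µM zinc acetate, and the array was washed. The binding signal is per-feature fluorescence intensity (arbitrary units) on an Axon 4000B scanner.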
Take “GTGCGCGTGCCGTGCACGGCGCACGCCGCCGCAACCGTCGCGGAGTCACCTAGTGCAG”: the binding signal is 3950 fluorescence intensity (a.u.).

For “TTTGAAACCGATTTCAACCGACGTGGCGGCTGAGTCGGCGCGGAGTCACCTAGTGCAG”, the binding signal is 13000 fluorescence intensity (a.u.).

Take “GAAGTATATGACATATTATATAGATAGTGGTAGTACATGTCGGAGTCACCTAGTGCAG”: the binding signal is 3500 fluorescence intensity (a.u.).

Take “TGTTGTCAAAATGTGCTTGTCTCCTTTTAGTTTTCAATGACGGAGTCACCTAGTGCAG”: the binding signal was 9590 fluorescence intensity (a.u.).

As to “TATCGTTCAACTTCAACACCACGTTATTTGCACGCATCTACGGAGTCACCTAGTGCAG”, the binding signal was 3550 fluorescence intensity (a.u.).

As for “AGGCCTGTGATGATGTGCACGCACTGCTTCTCAGACAGGGCGGAGTCACCTAGTGCAG”, the binding signal was 21500 fluorescence intensity (a.u.).

Consider “GGTGATCAATGATCAAGTGCCAGCATGAATGGTTCGTACACGGAGTCACCTAGTGCAG”, for which the binding signal was 36200 fluorescence intensity (a.u.).

Consider “ATGGGGTTTATTTTGCAAAAGACAGCTGAGGTGGCACGCTCGGAGTCACCTAGTGCAG”, for which the binding signal is 12100 fluorescence intensity (a.u.).

Take “ATCATCAACCGCGCGTCATGGTTGGTACAACATCGTTTGTCGGAGTCACCTAGTGCAG”: the binding signal was 4180 fluorescence intensity (a.u.).

“TAAACGGGCTTTTGCTGGCCAATTAGTGTGTCACGATATGCGGAGTCACCTAGTGCAG”: the binding signal is 3850 fluorescence intensity (a.u.).

Regarding “AAGTTGTGTAAATTCGGTCATGTCAGACAAATGTCAGCCCCGGAGTCACCTAGTGCAG”, the binding signal is 3920 fluorescence intensity (a.u.).

As to “TAAGCCCATCTTCCACATCTTCATTTATTGAGGTGTGTTCCGGAGTCACCTAGTGCAG”, the binding signal was 3620 fluorescence intensity (a.u.).

As for “TACATCATGCGTCGCTGCGTCACCATGCTCGTCTGCTGGCCGGAGTCACCTAGTGCAG”, the binding signal was 10200 fluorescence intensity (a.u.).

For the sequence “TTGTGTTCCCCTTGCACGTCTGCATCGTTGGTGTGGCTTGCGGAGTCACCTAGTGCAG”, the binding signal is 3730 fluorescence intensity (a.u.).

As to “TTCTGCTCCCAGCTGCCAGCTACGTTGCAACCCCACCACCCGGAGTCACCTAGTGCAG”, the binding signal is 3370 fluorescence intensity (a.u.).

Take “CGATTCAAAGCCGAGCGGCGTCGCCACTCGCCACCACCTCCGGAGTCACCTAGTGCAG”: the binding signal was 6650 fluorescence intensity (a.u.).

Turning to “TACTACCATGACGCTGCACTGCATGTTCGGATGTATTTCCCGGAGTCACCTAGTGCAG”, the binding signal is 6280 fluorescence intensity (a.u.).

On to “AGTCTGGCTTGGCTCCCTCCCCTGTAGCTCATCCAGCAACCGGAGTCACCTAGTGCAG”, for which the binding signal was 3160 fluorescence intensity (a.u.).

Consider “CAATTCCTTCTCCTCCCTCTACCGCCATATCAGCACACGTCGGAGTCACCTAGTGCAG”, for which the binding signal is 4240 fluorescence intensity (a.u.).

Consider “CTATGGCTCATGAGCCAAAATTCAAAAGGCTAACGTTGGCCGGAGTCACCTAGTGCAG”, for which the binding signal was 43400 fluorescence intensity (a.u.).

On to “GCCCATCAGCCAACCTCCCCTTAGGCCTGATGACACGGAACGGAGTCACCTAGTGCAG”, for which the binding signal was 3890 fluorescence intensity (a.u.).

Regarding “GCTGTTTCATTCAACTGACAAATTCTGTTCATAGTCACGCCGGAGTCACCTAGTGCAG”, the binding signal was 4060 fluorescence intensity (a.u.).

With “AGGAGTCTCCCGTACATGCGGCCTGATTTGACCCAATCCCCGGAGTCACCTAGTGCAG”, the binding signal was 3820 fluorescence intensity (a.u.).

As for “TTCACTAATGTGGCCCATGATGACTCGGCCGGTTAGACTACGGAGTCACCTAGTGCAG”, the binding signal was 6150 fluorescence intensity (a.u.).

Take “CGCGCCGCGCACGCACGCACGCACGCATGTGCCCACCCTGCGGAGTCACCTAGTGCAG”: the binding signal is 3470 fluorescence intensity (a.u.).

As for “TCGCCGACCCTGCCACCGCAATGACTCCCCTGCCGCCGCCCGGAGTCACCTAGTGCAG”, the binding signal is 4070 fluorescence intensity (a.u.).

With “AGCAAATCTTAAGATTGACGAAGTCAGCACGGATGTTTCGCGGAGTCACCTAGTGCAG”, the binding signal was 3250 fluorescence intensity (a.u.).

Consider “TTAACTTTGACGTGTTGCAACACCATCATGGGCTAACGTTCGGAGTCACCTAGTGCAG”, for which the binding signal is 5020 fluorescence intensity (a.u.).

With “AATTGCCCACACTCCACGCAAGCCGGCCCAACTCCTTGGACGGAGTCACCTAGTGCAG”, the binding signal was 4030 fluorescence intensity (a.u.).

With “CGCCGTCGCCCATTTCGGCATGCGTTATCACCGCCGCCACCGGAGTCACCTAGTGCAG”, the binding signal is 3450 fluorescence intensity (a.u.).

Take “GCCCACAAACACAAGCGCTGTTTTCCTCTCCTACCCTTTTCGGAGTCACCTAGTGCAG”: the binding signal was 3310 fluorescence intensity (a.u.).

Take “GGGACGTGTGATGAACTTACTCCATATAAATAAACATACGCGGAGTCACCTAGTGCAG”: the binding signal is 4600 fluorescence intensity (a.u.).

As for “GATTGTTCTTCTCGCTTCTGAATTGTTGTGACCTGTAACTCGGAGTCACCTAGTGCAG”, the binding signal is 3150 fluorescence intensity (a.u.).

Turning to “CAGTGACCGTGACGTGATACATGGAGATAACGCCGCCTGGCGGAGTCACCTAGTGCAG”, the binding signal is 6620 fluorescence intensity (a.u.).

Turning to “TCGTTTGGAGGACATTGAGGGAGAAAGCATCTCATTTTCCCGGAGTCACCTAGTGCAG”, the binding signal is 8540 fluorescence intensity (a.u.).

Consider “ATATCGAGCTGAGTTCTCCACGTCGGCCTGACTGCGACTGCGGAGTCACCTAGTGCAG”, for which the binding signal was 9540 fluorescence intensity (a.u.).

With “CGCCGTCGTATGCGTGGCTCCCCTCCCCGGCCTCTCGTCTCGGAGTCACCTAGTGCAG”, the binding signal was 4790 fluorescence intensity (a.u.).

As to “CAACTCATCCATCCCCACCTTGTCCACGTCGTCGCCTATACGGAGTCACCTAGTGCAG”, the binding signal is 10600 fluorescence intensity (a.u.).

On to “ATCACAAGATTTTGTAGTAGATGCCAAGTGGTGACTGACACGGAGTCACCTAGTGCAG”, for which the binding signal was 4360 fluorescence intensity (a.u.).

For the sequence “AAGAAACAAACAGACACGTAAGGAGGAGAAATTTCCCCTCCGGAGTCACCTAGTGCAG”, the binding signal is 5190 fluorescence intensity (a.u.).

Consider “GGCTGAGAAATAGTAACTGGGCCAACATGCGTGTTGACTACGGAGTCACCTAGTGCAG”, for which the binding signal was 3440 fluorescence intensity (a.u.).

As for “TACTTTCAACTTTTACCGTGTAAAATGACTCATTCAACTGCGGAGTCACCTAGTGCAG”, the binding signal was 6560 fluorescence intensity (a.u.).

Regarding “GCCGCGCGCCGCATCACATACACGGGCCACGGCCTCACGGCGGAGTCACCTAGTGCAG”, the binding signal was 38900 fluorescence intensity (a.u.).

Turning to “AGAGAGAGAGAGGAAAAGGGAGAAGCCAAGGAGTTGTTGGCGGAGTCACCTAGTGCAG”, the binding signal was 3370 fluorescence intensity (a.u.).

Take “AGCGTGTAAAGTTTTGGCGTGTCACATCGGATGTACGGACCGGAGTCACCTAGTGCAG”: the binding signal is 3830 fluorescence intensity (a.u.).

Regarding “CCAAGTTCGGCTGGTCGCCACGCCACCCATCTCCATCTTCCGGAGTCACCTAGTGCAG”, the binding signal was 4140 fluorescence intensity (a.u.).

Take “CTAGACGCCGGCGACGACGAGGGTGGTTGGGTTGTGGATACGGAGTCACCTAGTGCAG”: the binding signal is 3740 fluorescence intensity (a.u.).

On to “GTGTGTGACGCGTGTCACCACACGTTCTCTATCGCCCCTCCGGAGTCACCTAGTGCAG”, for which the binding signal was 8870 fluorescence intensity (a.u.).

Turning to “GAGTCTGACGAAGCCGTTCGCCAACAGCAGATGCCTATTGCGGAGTCACCTAGTGCAG”, the binding signal was 3280 fluorescence intensity (a.u.).

In the case of “TTCACTCGAGGAGGCGGCGGAGGCAGTCCACGTCAGCAACCGGAGTCACCTAGTGCAG”, the binding signal is 39000 fluorescence intensity (a.u.).

For the sequence “GATTGAGATGACTTTCTTGTGATGACCCGCTAATTTCAGACGGAGTCACCTAGTGCAG”, the binding signal is 3300 fluorescence intensity (a.u.).

For “TAGCAAGAGACCTTGTTGAGCATGTCATCAATGTCAAGTGCGGAGTCACCTAGTGCAG”, the binding signal was 4150 fluorescence intensity (a.u.).

Turning to “ATGCCCGCACCGCACTATCCCCACGTGACGACGACGATACCGGAGTCACCTAGTGCAG”, the binding signal was 3560 fluorescence intensity (a.u.).

For “ATACTAGCAATCTCATTTATCCCGCCACGTAGGTAAAATTCGGAGTCACCTAGTGCAG”, the binding signal is 7760 fluorescence intensity (a.u.).
